The results in this text go back to publication PMC10312969.

Protein sequences, listed by entry. Tags and fused reporters are not part of them.
UniProt Q76MZ3: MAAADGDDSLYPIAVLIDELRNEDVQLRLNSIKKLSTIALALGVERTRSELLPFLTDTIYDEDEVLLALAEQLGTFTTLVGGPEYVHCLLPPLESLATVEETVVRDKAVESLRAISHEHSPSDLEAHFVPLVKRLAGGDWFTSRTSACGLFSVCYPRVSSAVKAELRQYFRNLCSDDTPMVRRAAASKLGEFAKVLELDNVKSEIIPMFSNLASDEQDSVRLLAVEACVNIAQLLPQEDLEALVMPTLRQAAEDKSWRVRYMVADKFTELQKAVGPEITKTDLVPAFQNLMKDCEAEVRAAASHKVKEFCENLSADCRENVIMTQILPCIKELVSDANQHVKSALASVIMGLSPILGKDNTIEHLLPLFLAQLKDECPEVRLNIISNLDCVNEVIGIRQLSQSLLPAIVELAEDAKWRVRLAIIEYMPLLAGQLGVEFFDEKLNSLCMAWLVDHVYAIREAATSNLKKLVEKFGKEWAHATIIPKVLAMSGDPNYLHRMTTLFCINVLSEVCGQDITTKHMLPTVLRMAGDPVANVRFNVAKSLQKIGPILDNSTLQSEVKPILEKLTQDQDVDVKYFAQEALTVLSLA

The target in the experiment is T1, RalA^G23V constitutively active mutant ectopically expressed in liver (UniProt P11233).
T1 sequence: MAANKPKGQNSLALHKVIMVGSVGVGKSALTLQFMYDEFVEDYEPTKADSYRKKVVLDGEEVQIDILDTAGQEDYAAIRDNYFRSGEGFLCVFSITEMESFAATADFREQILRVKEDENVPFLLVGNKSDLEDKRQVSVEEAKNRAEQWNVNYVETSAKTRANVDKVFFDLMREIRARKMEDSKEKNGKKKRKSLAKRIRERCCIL
The experiment is described as follows: affinity purification with mass spectrometry; proteomics of proteins interacting with WT, G23V or S28N RalA ectopically expressed in liver.

No constants are given. Whether binding was seen depends on the method and setting. In cells and extracts the contact can be indirect. These calls come from enrichment with a bait or labelling near it, and not all partners need be listed.

Consider “protein phosphatase 2A subunit A alpha (PP2Aa) of liver (from UniProt Q76MZ3 1-589)”, for which the binding result is “binds”.
